The target in experiment [1] is C1a domain fused to mCer (TEV product of the C1a - 10 nm - C2 sensor) (human) (UniProt P17252). The experiment in a line: SEC; analytical size exclusion of C1a - 10 nm - C2 with or without pre-incubation with TEV protease; mobile phase EGTA buffered or 300 μM free calcium; mCer and mCit fluorescence of the eluant against molecular standards; both purified.
Experiment [2] shares this target. The experiment in a line: single-particle fluorescence microscopy (spots on glass coverslips); mCer/mCit biosensors with or without pre-treatment with TEV protease, in free calcium (300 μM); mCer and mCit channels read apart with a dual view module; both purified.

No constants are given. Whether binding was seen depends on the method and setting.

The record followed here is PMC5051681.

With “C1a domain fused to mCer (TEV product of the C1a - 10 nm - C2 sensor) (from UniProt P17252 32-100) (domain or fragment)”, the binding entry in experiment [1] and in experiment [2] was “no binding” each time.
